Measurements: paper PMC4740996
No constants are given. Whether binding was seen depends on the method and setting. Binding seen in cells or lysates may run through a third protein. Some entries that bind do so weakly or less than the wild type.

Amino acid sequences for entries named in this document (tags omitted).
UniProt Q9VMJ7: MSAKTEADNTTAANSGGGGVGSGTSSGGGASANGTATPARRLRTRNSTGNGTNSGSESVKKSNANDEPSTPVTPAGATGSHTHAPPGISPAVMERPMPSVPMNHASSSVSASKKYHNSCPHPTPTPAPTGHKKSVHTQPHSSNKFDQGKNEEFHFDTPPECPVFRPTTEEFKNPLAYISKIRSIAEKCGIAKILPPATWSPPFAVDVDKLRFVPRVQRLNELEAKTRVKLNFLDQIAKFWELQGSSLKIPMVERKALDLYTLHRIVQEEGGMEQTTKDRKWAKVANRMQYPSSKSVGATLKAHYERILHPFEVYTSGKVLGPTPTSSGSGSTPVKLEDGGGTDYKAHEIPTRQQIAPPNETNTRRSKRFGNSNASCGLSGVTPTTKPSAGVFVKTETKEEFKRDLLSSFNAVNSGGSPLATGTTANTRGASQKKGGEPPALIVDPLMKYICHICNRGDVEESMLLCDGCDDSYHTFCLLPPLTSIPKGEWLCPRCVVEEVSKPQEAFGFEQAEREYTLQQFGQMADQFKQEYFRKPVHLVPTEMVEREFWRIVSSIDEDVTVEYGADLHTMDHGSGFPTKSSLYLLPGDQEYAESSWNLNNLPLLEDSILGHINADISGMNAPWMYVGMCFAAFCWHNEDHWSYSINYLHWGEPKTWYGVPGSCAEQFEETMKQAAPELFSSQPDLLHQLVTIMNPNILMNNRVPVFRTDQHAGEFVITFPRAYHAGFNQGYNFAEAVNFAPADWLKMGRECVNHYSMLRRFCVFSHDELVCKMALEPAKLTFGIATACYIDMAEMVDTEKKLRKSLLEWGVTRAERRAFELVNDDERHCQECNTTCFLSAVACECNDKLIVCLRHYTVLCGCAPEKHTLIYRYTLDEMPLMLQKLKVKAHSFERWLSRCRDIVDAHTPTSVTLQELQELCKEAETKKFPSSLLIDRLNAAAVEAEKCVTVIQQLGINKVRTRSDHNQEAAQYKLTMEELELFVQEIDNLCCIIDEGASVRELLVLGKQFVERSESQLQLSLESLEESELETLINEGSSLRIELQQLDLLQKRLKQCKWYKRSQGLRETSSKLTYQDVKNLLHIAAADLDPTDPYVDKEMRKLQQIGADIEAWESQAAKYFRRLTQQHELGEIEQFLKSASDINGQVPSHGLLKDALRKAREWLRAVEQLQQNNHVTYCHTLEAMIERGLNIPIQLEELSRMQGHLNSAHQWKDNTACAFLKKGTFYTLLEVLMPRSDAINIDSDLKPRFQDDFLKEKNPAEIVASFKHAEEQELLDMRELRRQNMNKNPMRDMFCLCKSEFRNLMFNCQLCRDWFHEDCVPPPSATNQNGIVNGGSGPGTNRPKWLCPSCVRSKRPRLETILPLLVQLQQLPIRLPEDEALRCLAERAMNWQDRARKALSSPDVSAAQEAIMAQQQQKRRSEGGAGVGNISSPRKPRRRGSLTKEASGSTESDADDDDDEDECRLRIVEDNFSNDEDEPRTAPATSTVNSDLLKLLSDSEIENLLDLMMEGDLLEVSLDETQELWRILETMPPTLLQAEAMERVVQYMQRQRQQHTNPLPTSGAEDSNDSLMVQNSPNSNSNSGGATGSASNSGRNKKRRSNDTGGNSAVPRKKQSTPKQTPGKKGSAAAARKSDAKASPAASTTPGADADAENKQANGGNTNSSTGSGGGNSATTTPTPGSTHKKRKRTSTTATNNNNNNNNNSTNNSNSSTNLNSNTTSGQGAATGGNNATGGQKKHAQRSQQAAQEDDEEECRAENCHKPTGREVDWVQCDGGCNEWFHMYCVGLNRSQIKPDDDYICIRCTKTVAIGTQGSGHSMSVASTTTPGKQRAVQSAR
UniProt Q94517: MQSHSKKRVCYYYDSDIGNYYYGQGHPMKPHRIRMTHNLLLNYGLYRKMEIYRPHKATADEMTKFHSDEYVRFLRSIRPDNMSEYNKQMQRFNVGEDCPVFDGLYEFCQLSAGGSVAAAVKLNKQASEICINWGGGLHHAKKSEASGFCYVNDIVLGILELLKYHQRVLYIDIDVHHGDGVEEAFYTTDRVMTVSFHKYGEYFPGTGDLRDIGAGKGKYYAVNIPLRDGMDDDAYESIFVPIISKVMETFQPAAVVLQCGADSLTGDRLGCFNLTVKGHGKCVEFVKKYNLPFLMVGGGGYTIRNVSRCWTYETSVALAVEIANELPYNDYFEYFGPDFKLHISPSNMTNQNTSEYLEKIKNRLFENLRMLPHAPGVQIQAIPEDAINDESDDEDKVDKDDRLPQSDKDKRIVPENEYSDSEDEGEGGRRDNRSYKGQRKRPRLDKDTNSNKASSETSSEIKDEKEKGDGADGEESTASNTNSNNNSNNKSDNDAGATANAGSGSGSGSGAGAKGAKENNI

Target: FLAG-HA-tagged dKDM5/LID (Drosophila) (UniProt Q9VMJ7)
Assay: co-IP; nuclear extracts of S2 cells expressing the HA-tagged bait, anti-HA agarose beads (clone HA-7) overnight at 4 °C in 20 mM HEPES pH 7.4, 150 mM NaCl, 0.5 mM EDTA, 1 % Triton X-100, 10 % glycerol; washes with RIPA, 500 mM and 300 mM NaCl buffers; western blot of bound fraction; untransfected S2 cells as control

- binding: binds
Substance: RPD3 (endogenous, S2 cells) (from UniProt Q94517 1-521) (enzyme)
